The target of test [1] is T1, FBXL6-Flag (F-box/LRR-repeat protein 6, wild type) (human) (UniProt Q8N531).
T1 sequence: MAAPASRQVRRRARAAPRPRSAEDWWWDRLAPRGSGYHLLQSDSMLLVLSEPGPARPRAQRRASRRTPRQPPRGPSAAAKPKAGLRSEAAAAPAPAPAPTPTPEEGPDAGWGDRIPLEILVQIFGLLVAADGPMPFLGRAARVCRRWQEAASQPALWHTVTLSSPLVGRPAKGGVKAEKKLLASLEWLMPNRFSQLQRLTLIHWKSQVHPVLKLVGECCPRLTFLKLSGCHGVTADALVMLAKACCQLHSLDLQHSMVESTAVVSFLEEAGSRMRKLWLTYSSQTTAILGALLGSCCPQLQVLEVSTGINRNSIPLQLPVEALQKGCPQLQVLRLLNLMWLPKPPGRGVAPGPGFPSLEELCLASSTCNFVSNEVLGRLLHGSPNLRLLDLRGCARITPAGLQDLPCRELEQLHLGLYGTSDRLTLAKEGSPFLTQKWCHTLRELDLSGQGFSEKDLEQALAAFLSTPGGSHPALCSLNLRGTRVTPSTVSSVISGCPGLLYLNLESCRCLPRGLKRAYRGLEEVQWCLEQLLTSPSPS
Kind of test: co-IP.

The next test deals with T2, C497R-FBXL6 flag (human) (UniProt Q8N531).
T2 sequence: T1 sequence with C497R
Briefly: co-IP.

Where a chain is given by its changes, count along the chain named. Results are given in words; binding and its absence hold for the method and conditions named. In cells and extracts the contact can be indirect. A result given as binding can be weak or reduced; the word gives no strength. Where a sequence is shown, tags or fusion partners need not be part of it.

Among the data in doi:10.1101/2022.11.01.514535 are binding values, retold here.

In the case of “mitochondrial ribosomal protein L45 (MRPL45), endogenous (human (endogenous in HEK and HeLa))”, the binding entry (in test [1]; with C497R-FBXL6 flag (human)) was “binds” throughout.
